# Reference: PubChem BioAssay AID504327 (National Center for Advancing Translational Sciences (NCATS), 2011)
# Chains of the proteins cited; added tags and fusions are not shown.
# UniProt Q92830, whole entry, looked up: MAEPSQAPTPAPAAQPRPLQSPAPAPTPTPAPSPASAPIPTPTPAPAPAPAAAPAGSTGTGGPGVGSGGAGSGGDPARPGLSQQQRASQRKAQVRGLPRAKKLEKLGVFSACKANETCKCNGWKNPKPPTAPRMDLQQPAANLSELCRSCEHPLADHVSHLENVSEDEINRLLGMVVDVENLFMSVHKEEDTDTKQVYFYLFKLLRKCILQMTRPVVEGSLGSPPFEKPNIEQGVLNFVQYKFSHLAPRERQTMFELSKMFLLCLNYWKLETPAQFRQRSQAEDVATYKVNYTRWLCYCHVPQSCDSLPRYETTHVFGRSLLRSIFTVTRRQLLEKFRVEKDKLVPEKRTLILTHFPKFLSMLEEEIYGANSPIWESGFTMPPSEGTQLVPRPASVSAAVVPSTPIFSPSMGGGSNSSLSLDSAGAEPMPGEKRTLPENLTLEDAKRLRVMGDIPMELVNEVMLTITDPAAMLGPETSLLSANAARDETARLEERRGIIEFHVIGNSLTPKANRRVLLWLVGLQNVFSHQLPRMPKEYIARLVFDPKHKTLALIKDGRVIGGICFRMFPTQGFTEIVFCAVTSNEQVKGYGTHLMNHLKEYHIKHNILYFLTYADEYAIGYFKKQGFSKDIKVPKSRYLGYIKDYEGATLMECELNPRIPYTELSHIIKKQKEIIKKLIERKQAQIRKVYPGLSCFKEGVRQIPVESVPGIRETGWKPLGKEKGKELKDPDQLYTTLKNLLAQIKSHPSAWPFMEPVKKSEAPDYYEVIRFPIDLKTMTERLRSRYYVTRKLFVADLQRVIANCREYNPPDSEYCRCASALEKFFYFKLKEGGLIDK
# The whole screen tested about 390,000 compounds, of which about 820 (0.21%) were called active. The shares of active, inactive and inconclusive entries below differ from those in the screen. Calls come from the whole dose curve; as a rule, active = well fitted inhibition curve with a large enough effect; inconclusive = small, poorly fitted or top-dose-only effect, or another doubt; inactive = no such curve, though single readings can be large or run the other way. Where the call is inconclusive, the potency comes from a doubtful curve fit.
# Target: Histone acetyltransferase KAT2A (Homo sapiens) (UniProt Q92830)
# Assay: qHTS Assay for Inhibitors of GCN5L2
# Details: GCN5L2 HAT assay, ThioGlo1 CoA-SH fluorescence; activity change, negative = inhibition: at 58.9 µM (top of the series) unless noted
# Outline: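 Enzyme at 20nM final was mixed with library compounds for 15 min at room temperature. Peptide H3(1-25) at 75uM, acetyl-CoA at 70uM and ThioGlo1 at 50uM were then added. Plates were read immediately and after 20 min (Ex340nm/Em540nm).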
# % is set by controls: 0 for no effect and ±100 for the full control effect; potency is the fitted concentration of half-maximal effect.
SMILES,"activity change, negative = inhibition",Potency
CCCc1cnc2c(c1SCC(=O)Nc1ccc([N+](=O)[O-])cc1)c(=O)n(C)c(=O)n2C,inactive: -14.7%,–
COc1ccc(Cl)cc1S(=O)(=O)N1CCN(C(=O)c2cc(OC)c(OC)c(OC)c2)CC1,–,"inconclusive: 1.26 µM [inhibitor, full curve, poor fit]"
c1cncc(-c2nc3ccccc3[nH]2)c1,–,"inconclusive: 0.316 µM [inhibitor, full curve, poor fit]"
CCCCC(=O)NC(Nc1cc(C)ccn1)(C(=O)OCC)C(F)(F)F (stereo not given),–,"inconclusive: 4.47 µM [inhibitor, single point]"
CCCCCCCCCCCC(=O)NC(C(=O)O)C(O)c1ccccc1 (stereo not given),–,"inconclusive: 39.8 µM [inhibitor, partial curve, poor fit]"
CCN(C(=O)c1sc2nc3n(c(=O)c2c1C)CCCC3)c1ccccc1F,–,"inconclusive: 39.8 µM [inhibitor, single point]"
CCc1ccccc1NC(=O)CCc1c(C)nc2cc(-c3ccccc3)nn2c1C,inactive: 0.767%,–
O=c1c2c3nc4ccccc4nc3n(Cc3ccccc3)c2ncn1Cc1ccco1,–,"inconclusive: 31.6 µM [inhibitor, single point]"
CN(C)C(=O)c1ccc(-c2nccc(NCc3cccs3)n2)cc1,–,"inconclusive: 31.6 µM [inhibitor, single point]"
O=C(N/N=C\c1ccccc1O)c1ccccc1O,–,"inconclusive: 35.5 µM [inhibitor, single point]"
c1cncc(C(c2nnnn2C2CCCCC2)N2CCCCC2)c1 (stereo not given),–,"inconclusive: 39.8 µM [inhibitor, single point]"
COC(=O)c1cc2c(-c3ccccc3)cc3ccccn3c-2c1C(=O)OC,inactive: -6.92%,–
CS(=O)(=O)Nc1cccc(-c2nc(NCc3ccccc3)c3ccccc3n2)c1,–,"inconclusive: 31.6 µM [inhibitor, partial curve]"
COc1ccc(CCN(Cc2cc3cc(C)cc(C)c3nc2Cl)C(=O)C2CC2)cc1,–,"inconclusive: 11.2 µM [inhibitor, partial curve, poor fit]"
Cc1c(NC(=O)Nc2ccc(Cl)cc2)c(=O)n(-c2ccccc2)n1C,–,"inconclusive: 0.708 µM [inhibitor, full curve, poor fit]"
CSc1ccc(/C=C(/NC(=O)c2ccco2)C(=O)NCc2ccco2)cc1,–,"inconclusive: 0.1 µM [inhibitor, full curve, poor fit]"
CC(=O)Nc1ccc(NC(=O)C(C)OC(=O)CNC(=O)c2cccs2)cc1 (stereo not given),–,"inconclusive: 7.08 µM [inhibitor, single point]"
CCc1ccc(CN2CCC(n3nccc3NC(=O)C3CCCC3)CC2)cc1,–,"inconclusive: 25.1 µM [inhibitor, single point]"
O=C(Nc1nccs1)c1ccc(-c2ccccc2[N+](=O)[O-])o1,–,"inconclusive: 39.8 µM [inhibitor, single point]"
Cc1n[nH]c(C)c1Sc1ccccc1N=Cc1cc([N+](=O)[O-])ccc1O,–,"inconclusive: 35.5 µM [inhibitor, single point]"
CCNc1ncc2ncc(=O)n(C)c2n1,–,"inconclusive: 39.8 µM [inhibitor, single point]"
O=C(c1ccc2c(c1)OCO2)C1CCCN(Cc2ccccc2OC(F)F)C1 (stereo not given),inactive: -13.4%,–
CC(C)(C)c1ccc(S(=O)(=O)N2CCC(CO)(CC3CCCCO3)CC2)cc1 (stereo not given),inactive: -0.0651%,–
Cc1cc(=O)oc2c(CN(C)Cc3ccccc3)c(O)ccc12,–,"inconclusive: 35.5 µM [inhibitor, single point]"

# Complete entries as entered above. Order of values: activity change, negative = inhibition | Potency
# O=C(c1ccc2c(c1)OCO2)C1CCCN(Cc2ccccc2OC(F)F)C1 (stereo not given) is entered as inactive: -13.4% | –
# Cc1n[nH]c(C)c1Sc1ccccc1N=Cc1cc([N+](=O)[O-])ccc1O is entered as – | inconclusive: 35.5 µM [inhibitor, single point]
# COC(=O)c1cc2c(-c3ccccc3)cc3ccccn3c-2c1C(=O)OC is entered as inactive: -6.92% | –

# (next part)

SMILES,"activity change, negative = inhibition",Potency
Cc1cccc(NC(=S)Nc2ccc(Oc3ccccc3)cc2)n1,inactive: 5.74%,–
O=[N+]([O-])c1ccc(Cl)c(/C=N/n2c(-c3cccnc3)n[nH]c2=S)c1,–,"inconclusive: 8.91 µM [inhibitor, single point]"
CC(C)Cn1c(-c2ccco2)csc1=Nc1cccnc1,–,"inconclusive: 7.08 µM [inhibitor, partial curve, poor fit]"
COC(=O)c1ccccc1NC(=O)CCS(=O)(=O)c1nc(-c2ccc3c(c2)OCO3)cc(C(F)(F)F)n1,inactive: -11.1%,–
Cc1ccc(S(=O)(=O)N2CCSC2c2ccco2)cc1 (stereo not given),inactive: -0.832%,–
COC(=O)c1c(-c2cccs2)csc1NC(=O)c1ccc(C(C)C)cc1,–,"inconclusive: 25.1 µM [inhibitor, partial curve]"
O=C(N/N=C/c1ccccc1O)c1cc(=O)[nH]c2ccccc12,inactive: -6.45%,–
COC(=O)C1=C(C)N(Cc2ccccc2)C(=NCC(C)C)N[C@H]1c1ccc(Br)cc1,–,"inconclusive: 39.8 µM [inhibitor, single point]"
Cc1cc(C2C(=O)CC(=O)CC2c2ccccc2)on1 (stereo not given),inactive: -2.72%,–
CC1=C(C(=O)OC(C)C)C2(O)C(=O)c3ccccc3C2(O)N1 (stereo not given),inactive: -5.31%,–
C/C(=N/NC(=O)c1ccc(Cl)s1)c1cccnc1,–,"inconclusive: 0.355 µM [inhibitor, partial curve, poor fit]"
CCCn1c(C2CCCN2c2nc(-c3ccc(OC)cc3)cs2)nc2ccccc21 (stereo not given),–,"inconclusive: 3.98 µM [inhibitor, single point]"
O=C(Cn1cc(C(=O)C2CC2)c2ccccc21)NC1CCCC1,–,"inconclusive: 25.1 µM [inhibitor, single point]"
NC(=O)C1CCCNC1 (stereo not given),–,"inconclusive: 14.1 µM [inhibitor, partial curve]"
COc1ccc(C(=O)Nc2nnc(CC(=O)N/N=C/c3ccc(O)cc3O)s2)cc1,inactive: 1.39%,–
COc1cccc(S(=O)(=O)NCc2ccc3c(c2)OCO3)c1,inconclusive: -89% [inhibitor] [at 0.501 µM],–
CC1Cc2ccccc2N1C(=O)CN1CCc2ccccc2C1 (stereo not given),inactive: -2.72%,–
CC1=C(C(=O)OC(C)C)C(c2ccc(Cl)cc2)n2c(s/c(=C\c3ccc(OCC(=O)O)cc3)c2=O)=N1 (stereo not given),–,"inconclusive: 35.5 µM [inhibitor, single point]"
COC(=O)c1ccccc1NCC(=O)c1ccc(OC)cc1,inactive: -13.9%,–
S=c1[nH]cnc2scc(-c3ccc(Cl)cc3)c12,–,"inconclusive: 7.08 µM [inhibitor, partial curve, poor fit]"
CCOC(=O)c1c(S(=O)(=O)N2CCC(C(=O)N3CCN(c4ccc(F)cc4)CC3)CC2)c(C)n(C)c1C,inactive: -16.6%,–
S=C(Nc1ccccc1)Nc1ccc(Br)cc1,–,"inconclusive: 0.158 µM [inhibitor, partial curve, poor fit]"
Cc1cccc(C)c1NC(=O)COC(=O)c1cc[n+]([O-])cc1,–,"inconclusive: 28.2 µM [inhibitor, single point]"
Cc1ccc(OCC(=O)Nc2cccc(C(=O)OCc3cc(=O)n4c(C)csc4n3)c2)cc1,–,"inconclusive: 31.6 µM [inhibitor, single point]"

SMILES,"activity change, negative = inhibition",Potency
COC(=O)c1sccc1-c1ccc(C(=O)Nc2ccccc2)o1,–,"inconclusive: 6.31 µM [inhibitor, single point]"
O=C(CNc1ccc(Br)cc1)c1ccccc1,–,"inconclusive: 1.78 µM [inhibitor, single point]"
O=C(N/N=C/c1ccccc1)C(=O)N/N=C/c1ccccc1,inactive: -0.541%,–
Cc1ccccc1CSCC(=O)Nc1ccccc1F,–,"inconclusive: 31.6 µM [inhibitor, single point]"
CCOc1ccc(-c2[nH]nc3c2C(c2ccc4c(c2)OCO4)C(C#N)=C(N)O3)cc1OC (stereo not given),–,"inconclusive: 39.8 µM [inhibitor, single point]"
COC(=O)c1ccccc1NCCO,–,"inconclusive: 15.8 µM [inhibitor, partial curve, poor fit]"
COc1cccc(OC)c1C(=O)NC(=S)Nc1ccc(S(=O)(=O)Nc2nccs2)cc1,–,"inconclusive: 39.8 µM [inhibitor, single point]"
O=C(Cn1c(-c2cccs2)cc2ccccc21)NCCCN1CCN(c2ccccc2F)CC1,inactive: -3.26%,–
CCN(C(=O)c1cc2c(s1)-c1ccccc1OC2)c1cccc(C(F)(F)F)c1,inactive: -11.6%,–
O=C(CSc1nc2ccccc2s1)Nc1ccc(Cl)c(C(=O)O)c1,–,"inconclusive: 39.8 µM [inhibitor, single point]"
N#Cc1c[nH]n2c(NC3CCCC3)c(-c3ccc(Cl)cc3)nc12,inactive: -3.67%,–
COc1ccc(/C=N/NC(=O)c2nc(-c3ccccc3)n(-c3ccccc3)n2)c(O)c1,inactive: -12.9%,–
Cc1ccc(S(=O)(=O)N2CCC3(CC2)OCCO3)cc1,–,"inconclusive: 10 µM [inhibitor, full curve, poor fit]"
Cc1cccc2nc(COc3ccc(-c4ccccc4)cc3)cn12,inactive: 0.161%,–
Cc1cccc(C(=O)OCC(=O)c2ccc3c(c2)OCO3)c1O,–,"inconclusive: 1.58 µM [inhibitor, full curve, poor fit]"
O=C(Nc1ccccc1)c1ccccc1N=Cc1cccc(O)c1,inactive: -17.3%,–
O=C(COC(=O)CCC(=O)c1cccs1)NCc1ccco1,–,"inconclusive: 5.01 µM [inhibitor, full curve, poor fit]"
CS(=O)(=O)c1ccc(C(=O)Nc2nc(-c3ccco3)c(-c3ccco3)s2)cc1,–,"inconclusive: 12.6 µM [inhibitor, partial curve]"
COc1ccccc1-c1nnc2sc(-c3cc4ccccc4o3)nn12,inactive: -9.38%,–
CCCSc1nc(NCc2ccco2)c2c3c(sc2n1)COC(C)(CC)C3 (stereo not given),–,"inconclusive: 0.794 µM [inhibitor, single point]"
CN(Cc1ccccc1)c1ncnc2c1cnn2-c1ccccc1,–,"inconclusive: 10 µM [inhibitor, partial curve, poor fit]"
Cn1c(-c2ccc(C=O)s2)nc2c3ccccc3c3ccccc3c21,inconclusive: -102% [inhibitor] [at 0.501 µM],–
